The campaign covered roughly 220,000 compounds. About 770 (0.35%) were called active. This list was built around the results that the source calls inconclusive (neither active nor inactive); the mix of calls is not that of the screen. Rule as the data show it: active = binding response below about 49% or above about 150%; inconclusive = no clear call, values can overlap the other calls; inactive = in between.
Biological target: Guanine nucleotide-binding protein G(o) subunit alpha (Homo sapiens) (UniProt P09471)
Test: RGS7-Galphao binding modulators, primary screen, biochemical, multiplexed bead flow cytometry (AID 1439);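 also: fluorescent Galphao held in activated GDP-AlF4 state binding bead-coupled RGS7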
Conditions: at 10 µM, actives lie on both sides

By UniProt entry, the sequences of proteins in these tests, tags left out.
UniProt P09471, whole entry, looked up: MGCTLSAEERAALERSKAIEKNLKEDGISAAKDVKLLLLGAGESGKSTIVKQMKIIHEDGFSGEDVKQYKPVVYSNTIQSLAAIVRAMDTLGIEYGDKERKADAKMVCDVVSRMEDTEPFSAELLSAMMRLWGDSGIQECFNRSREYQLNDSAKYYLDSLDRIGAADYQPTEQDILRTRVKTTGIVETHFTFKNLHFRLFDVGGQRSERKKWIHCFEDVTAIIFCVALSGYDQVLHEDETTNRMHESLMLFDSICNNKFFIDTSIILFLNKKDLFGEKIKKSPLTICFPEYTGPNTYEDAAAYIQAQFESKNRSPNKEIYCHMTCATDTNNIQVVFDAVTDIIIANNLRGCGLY

SMILES	binding response (% of control)
COc1cccc(N(CC(=O)NCc2ccco2)C(=O)CCC(=O)Nc2nccs2)c1	inconclusive: 106%
COc1ccc2c(c1OC)C(=O)N1N=C(c3ccccc3)CC21 (stereo unspecified)	inactive: 110%
COc1cccc(OCC(O)CN2CCN(c3ccc(Cl)cc3)CC2)c1 (stereo unspecified)	inconclusive: 81.5%
O=C1/C(=C/c2ccsc2)N2CCC1CC2	inconclusive: 61.5%
CCNC(=S)N1CCc2cc(OC)c(OC)cc2C1COc1ccccc1OC (stereo unspecified)	inconclusive: 98.5%
CCOC(=O)c1c(NC(=O)/C=C/C(=O)O)sc(C)c1-c1ccc(Cl)cc1	inconclusive: 131%
CCOC(=O)N1CCN(C(=O)C(=O)N/N=C/c2ccc(OC)cc2OC)CC1	inconclusive: 89.8%
Cc1ccc(NC(=O)N2CCCn3c(SCC(=O)c4ccccc4)nnc32)cc1	inconclusive: 115%
COC(=O)c1cc2c(C(F)(F)F)nn(C)c2s1	inconclusive: 103%
Cc1nn(Cc2ccccc2Cl)c2sc(C(=O)Nc3ccccc3N3CCOCC3)cc12	inactive: 95.3%
Cc1cccc(NC(=O)c2sc3nc(-c4ccccc4)cn3c2C)n1	inactive: 101%
Cc1c(N2C(=O)CSC2c2ccccc2)c(=O)n(-c2ccccc2)n1C (stereo unspecified)	inconclusive: 60.2%
O=c1[nH]nc(SCc2cc(Cl)ccc2Cl)c(=O)[nH]1	inconclusive: 87%
CCOc1ccc(N2CSC(=S)N(c3ccc(OCC)cc3)C2)cc1	inconclusive: 101%
O=C(N/N=C/c1ccc([N+](=O)[O-])cc1)c1cc(C2CC2)nc2ccccc12	inconclusive: 104%
COC(=O)/C(=C/c1cn(C(C)=O)c2ccccc12)[N+](=O)[O-]	inconclusive: 83.5%
CCOC(=O)c1c(C)oc2ccc(O)cc12	inactive: 98.9%
NC(=O)CSc1nnc(-c2ccccn2)n1N	inconclusive: 115%
S=c1[nH]nc(-c2ccc(Cl)cc2)n1/N=C/c1ccco1	inconclusive: -139%
Cc1cc(NC(=O)CSc2nnc(C3COc4ccccc4O3)n2C)no1 (stereo unspecified)	inactive: 92.3%
COC(OC)C(C)NC(=O)NC(=O)c1ccccc1Cl (stereo unspecified)	inconclusive: 102%
CN(C)C(=O)COC(=O)c1ccc(S(=O)(=O)NCc2ccco2)cc1	inconclusive: 60.4%
Cc1c(/C=N/O)sc2ccccc12	inconclusive: 70.7%

SMILES	binding response (% of control)
O=[N+]([O-])c1ccc(C2(O)CN(c3ccccc3)C3=[N+]2CCS3)cc1 (stereo unspecified)	inconclusive: 124%
Cn1c(=O)c2c(ncn2CC(=O)N2CCN(c3ccc([N+](=O)[O-])cc3)CC2)n(C)c1=O	inconclusive: 107%
O=[N+]([O-])c1ccccc1-c1ccc(C(=S)N2CCN(c3ccccc3)CC2)o1	inconclusive: 100%
CSc1ccc(NC(=O)NCc2ccccc2)cc1	inconclusive: 129%
COc1cc(/C=C2\SC(=O)NC2=O)ccc1Oc1ccc([N+](=O)[O-])cn1	inconclusive: 277%
O=C(COC(=O)c1ccccc1[N+](=O)[O-])Nc1cc(S(=O)(=O)N2CCOCC2)ccc1N1CCCC1	inconclusive: 77.5%
Brc1ccc(-c2csc(/N=C/N3CCCC3)n2)cc1	inconclusive: 97.7%
CCc1ccc(C(=O)OCC(=O)NCC(F)(F)F)cc1	inconclusive: 86.4%
O=C(COC(=O)c1ccc(=O)[nH]c1)Nc1cccc(S(=O)(=O)N2CCOCC2)c1	inconclusive: 27.1%
CC[C@@H]1CC=C[C@H]2[C@H]1C(=O)N(Cc1ccccc1)[C@H]2c1cc(C)ccc1F	inconclusive: 93.6%
COc1cc(/C=N/OCC(=O)NC2CCS(=O)(=O)C2)ccc1OC(F)F (stereo unspecified)	inconclusive: 73.1%
Cc1cccc(N(C(=O)Nc2ccc(Cl)cc2)C2=NCC(C)S2)n1 (stereo unspecified)	inactive: 95%
COc1ccc(OCC(=O)Nc2ccccc2C(=O)N2CCOCC2)cc1	inactive: 113%
Cc1nn2c(C)c(C(=O)Nc3ccccc3)cnc2c1-c1ccccc1	inconclusive: 96.5%
CN(C)C(=S)Nc1cccc(C(F)(F)F)c1	inconclusive: 89.3%
CC(=O)Nc1nc2c(s1)C(=O)NCC(C)(C)C2	inconclusive: 104%
O=C(Nc1cccnc1)OC1CCCC1	inactive: 105%
C[C@@H]1CC=C[C@H]2[C@H]1C(=O)N(Cc1ccccc1)[C@H]2c1ccoc1	inconclusive: 89.1%
CCN1CC(CN(C)Cc2cn(-c3cccc(C)c3)nc2-c2cccc(F)c2)CC1=O (stereo unspecified)	inactive: 97.4%
CN=C(Nc1ccccc1)SC1CC(=O)N(c2cccc(OC)c2)C1=O (stereo unspecified)	inconclusive: 103%
CC(=O)N(c1ccccc1C)C1CCCC1	inactive: 100%
COc1ccc(C(=O)OCC(=O)c2c(N)n(C)c(=O)n(C)c2=O)cc1OC	inconclusive: 99.4%
Cc1cc(C)cc(N(CCC#N)C(=O)CSC2=Nc3ccccc3C3CC=NN23)c1 (stereo unspecified)	inconclusive: 105%

A stretch of the results above, as a working copy:
SMILES	binding response (% of control)
O=C(Nc1cccnc1)OC1CCCC1	inactive: 105%
C[C@@H]1CC=C[C@H]2[C@H]1C(=O)N(Cc1ccccc1)[C@H]2c1ccoc1	inconclusive: 89.1%

(further entries)

SMILES	binding response (% of control)
C/C=C/C(=O)Nc1cccc(C2=NOC3(C2)C[C@@H](C(N)=O)N(C(=O)c2cc([N+](=O)[O-])cc([N+](=O)[O-])c2C)C3)c1 (stereo partly specified)	inconclusive: 110%
CN(/N=C/c1ccc(Cl)cc1Cl)c1ncc(Cl)cc1C(F)(F)F	inconclusive: 143%
CCCc1[nH]n(-c2nc3ccccc3s2)c(=O)c1C=NCCCOC	inconclusive: 95.7%
Cc1nc(SCC2(C)CC2(Cl)Cl)n[nH]1 (stereo unspecified)	inactive: 86.4%
CC1(C)CC(=O)C(N=Nc2c(F)cccc2F)=C(O)C1	inconclusive: 79.3%
COc1ccc(C2/C=C\CN(CC(C)(C)C)CC(=O)N2Cc2ccc(F)cc2)cc1 (stereo unspecified)	inconclusive: 76%
O=C(O)c1ccc(NS(=O)(=O)c2ccc3c(c2)OCCCO3)cc1	inconclusive: 107%
COc1ccc(-c2n[nH]c(=S)n2-c2ccc(C)cc2)cc1	inconclusive: 95.2%
O=C(COc1ccc([N+](=O)[O-])cc1)NCCc1nc2ccccc2[nH]1	inconclusive: 104%
CN(C)c1ccc(/C=N/NC(=O)c2cnc3ccccc3c2)cc1	inconclusive: 126%
COc1ccc(/C(C)=N/NS(=O)(=O)c2cc(C)ccc2C)c(OC)c1	inactive: 57.1%
Cc1ccc(C(=O)Nc2ccccc2C(=O)N2CCCCCC2)cc1	inconclusive: 94.1%
COc1ccc(-n2c(O)c(C=Nc3ccccc3)c3ccccc3c2=O)cc1	inactive: 86.7%
O=c1cc(-c2ccccc2)oc2ccc(O)cc12	inconclusive: 94.3%
CN(C)c1ccc2c(=O)[nH][nH]c(=O)c2c1	inactive: 104%
CCNC(=S)N1CCN(Cc2ccccc2)CC1	inconclusive: 94.3%
CCOC(=O)C(C)Oc1cccc2c(=O)n(CC(=O)NCCc3ccccc3)ccc12 (stereo unspecified)	inconclusive: 82.5%
COc1cc(Br)c(Br)cc1N	inconclusive: 108%
Cc1cccc2c(C(=O)N3CCN(C(=O)c4ccco4)CC3)cc(-c3cccc(Br)c3)nc12	inconclusive: 72%
CCC(C(=O)O)N1C(=O)C2CCCCC2C1=O (stereo unspecified)	inconclusive: 108%
COc1cc2nc(CN3CCOCC3)n(CC(=O)N3CCCCCC3)c(=O)c2cc1OC	inconclusive: 104%
Cc1ccc(S(=O)(=O)NCC(=O)Nc2cccc([N+](=O)[O-])c2)cc1	inconclusive: 107%
O=C(Nc1ccccc1C(F)(F)F)N1CCCC1c1cccnc1 (stereo unspecified)	inconclusive: 122%

SMILES	binding response (% of control)
CC1CCCC(NC(=O)C2CCC(CNc3c(N4CCCCC4)c(=O)c3=O)CC2)C1C (stereo unspecified)	inconclusive: 113%
COC1=C/C(=C/c2c(O)c(C#N)c3ccccn23)C=CC1=O	inconclusive: 25.1%
OCCC1CN(Cc2ccccc2-c2ccco2)CCN1C1CCCC1 (stereo unspecified)	inactive: 96.2%
NS(=O)(=O)c1ccc(-c2ccc(/C=C3\SC(=S)N(C4CCS(=O)(=O)C4)C3=O)o2)cc1 (stereo unspecified)	inconclusive: 98.7%
CCOCC(=O)Nc1cccc(SC)c1	inconclusive: 89.9%
CCOC(=O)C(C)c1c(C(=O)c2ccc(C)nc2)c2ccccc2n1C (stereo unspecified)	inconclusive: 111%
Cc1c(NC(=O)COC(=O)c2ccc(Br)o2)c(=O)n(-c2ccccc2)n1C	inconclusive: 106%
COc1cccc(/C=N/Nc2nc3ccccc3[nH]2)c1OC	inconclusive: -201%
CC(C)S(=O)(=O)c1csc(NC(=O)Nc2cc(Cl)ccc2Cl)c1Cl	inconclusive: 49.6%
CCN(CC)S(=O)(=O)c1ccc(C(=O)NCCN(C)C)cc1	inactive: 101%
CCOC(=O)NNC(=O)CCn1c2c(c3ccccc31)CCCC2	inconclusive: 104%
COc1cc(CCCN2C(=O)C(=O)NC[C@@H]2CCCCN)cc(OC)c1OC	inconclusive: 98.1%
COc1ccc(-c2cc(C(=O)Nc3cc(C)on3)no2)cc1	inconclusive: 103%
CCCCn1c(NCc2ccc(N(C)C)cc2)nc2ccccc21	inconclusive: 190%
CC(NC(=O)COC(=O)CSCc1ccccc1)c1ccccc1 (stereo unspecified)	inconclusive: 100%
CN(c1ccccc1)S(=O)(=O)c1ccc(Cl)c(C(=O)Nc2nn[nH]n2)c1	inconclusive: 105%
CCOc1ccc(C(=O)Nc2nnn(CC)n2)cc1	inactive: 93.2%
CC(/C=C1\SC(=S)N(NS(=O)(=O)c2ccccc2)C1=O)=C\c1ccccc1	inconclusive: -34%
CCCCOC(=O)c1ccc(NC(=O)C(=O)NCCN(C)C)cc1	inconclusive: 318%
CN1CCN(C(=O)/C(=C/c2cccs2)NC(=O)c2ccco2)CC1	inactive: 104%
Nc1ccccc1SC1CC(=O)N(c2ccc3c(c2)OCO3)C1=O (stereo unspecified)	inconclusive: 91.8%
COc1cc2c(c(O)c1OC)-c1c(cc(OC)c(OC)c1OC)C[C@@H](C)[C@@H](C)C2	inconclusive: 80.4%

An excerpt from above in order of SMILES length, rising:
SMILES	binding response (% of control)
CCOCC(=O)Nc1cccc(SC)c1	inconclusive: 89.9%
CCOc1ccc(C(=O)Nc2nnn(CC)n2)cc1	inactive: 93.2%
CCCCn1c(NCc2ccc(N(C)C)cc2)nc2ccccc21	inconclusive: 190%
OCCC1CN(Cc2ccccc2-c2ccco2)CCN1C1CCCC1 (stereo unspecified)	inactive: 96.2%
COc1ccc(-c2cc(C(=O)Nc3cc(C)on3)no2)cc1	inconclusive: 103%
CCN(CC)S(=O)(=O)c1ccc(C(=O)NCCN(C)C)cc1	inactive: 101%
Nc1ccccc1SC1CC(=O)N(c2ccc3c(c2)OCO3)C1=O (stereo unspecified)	inconclusive: 91.8%
COC1=C/C(=C/c2c(O)c(C#N)c3ccccn23)C=CC1=O	inconclusive: 25.1%
CN1CCN(C(=O)/C(=C/c2cccs2)NC(=O)c2ccco2)CC1	inactive: 104%
CCOC(=O)C(C)c1c(C(=O)c2ccc(C)nc2)c2ccccc2n1C (stereo unspecified)	inconclusive: 111%
CC(C)S(=O)(=O)c1csc(NC(=O)Nc2cc(Cl)ccc2Cl)c1Cl	inconclusive: 49.6%
COc1cc(CCCN2C(=O)C(=O)NC[C@@H]2CCCCN)cc(OC)c1OC	inconclusive: 98.1%
Cc1ccc(S(=O)(=O)NCC(=O)Nc2cccc([N+](=O)[O-])c2)cc1	inconclusive: 107%
CN(c1ccccc1)S(=O)(=O)c1ccc(Cl)c(C(=O)Nc2nn[nH]n2)c1	inconclusive: 105%
CC1CCCC(NC(=O)C2CCC(CNc3c(N4CCCCC4)c(=O)c3=O)CC2)C1C (stereo unspecified)	inconclusive: 113%
COc1cc2c(c(O)c1OC)-c1c(cc(OC)c(OC)c1OC)C[C@@H](C)[C@@H](C)C2	inconclusive: 80.4%
NS(=O)(=O)c1ccc(-c2ccc(/C=C3\SC(=S)N(C4CCS(=O)(=O)C4)C3=O)o2)cc1 (stereo unspecified)	inconclusive: 98.7%

Source: PubChem BioAssay AID1439 (NMMLSC, 2008)
